Screen size: about 400,000 compounds; about 13,000 (3.2%) were called active. The shares of active, inactive and inconclusive entries below differ from those in the screen. The call rests on the fitted dose curve; in most records, active means well fitted cell-killing curve with a large enough effect; inconclusive means small, poorly fitted or top-dose-only effect, or effect the other way; inactive means flat fitted curve, though single readings scatter. Potencies beside an inconclusive call are fits to weak or partial responses and may not hold up.
Test: qHTS assay for MDR1-selective chemotherapeutics: Primary screen using the drug-selected MDR subline cells KB-V1; further: nearly all actives have a fitted effect of over 60% in size
Settings: KB-V1 MDR cells viability, CellTiter-Glo, 72 h; activity change, negative = cytotoxicity: at 46.1 µM (top of the series)
Method in brief: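 Cells of the MDR subline KB-V1 are plated, dosed with compound at multiple concentrations, and incubated 72 h at 37 degrees C; CellTiter-Glo is then added and luminescence read after 10 min.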
On the % scale 0 is the no-effect control and ±100 the full control effect; potency means the concentration at half of the fitted maximal effect.

Structure (SMILES) | Potency | activity change, negative = cytotoxicity
Cc1cccc(N(Cc2cc3ccccc3[nH]c2=O)S(C)(=O)=O)c1 | inconclusive: 9.2 µM [cytotoxic, partial curve, poor fit] | –
CCCCCNC(=O)C(CCc1ccccc1)n1c(=O)c(-c2ccccc2)nc2ccccc21 (stereo not drawn) | – | inactive: -23.7%
O=C(c1c(F)cccc1F)N(C1CCCCC1)C1CCCCC1 | – | inactive: 28.4%
CCOC(=O)c1[nH]c2c(c1C)C(=O)CC(c1ccc(F)cc1)C2 (stereo not drawn) | inconclusive: 2.31 µM [cytotoxic, full curve] | –
Cc1ccc(C(=O)N2CCOCC2)cc1[N+](=O)[O-] | inconclusive: 29.1 µM [rising, single point] | –
COCCNC(=O)CN1C(=O)COc2ccc(S(=O)(=O)N3CC(C)CC(C)C3)cc21 (stereo not drawn) | – | inactive: 25.6%
COCCCNc1nc2ccccc2nc1NS(=O)(=O)c1cc(Cl)ccc1Cl | inconclusive: 23.1 µM [cytotoxic, partial curve, poor fit] | –
CC(C)c1nnc(NC(=O)c2nc(S(=O)(=O)Cc3ccccc3)ncc2Cl)s1 | inconclusive: 29.1 µM [cytotoxic, single point] | –
NS(=O)(=O)c1cccc(NC(=O)COc2ncnc3c2cnn3-c2ccccc2)c1 | inconclusive: 23.1 µM [cytotoxic, single point] | –
COc1ccc(OC)c(/C=N/NC(=O)c2c(C)nc3ccc(C)cn23)c1 | – | inactive: -1.56%
COc1ccc(O)c(CN2CCC(n3nccc3NC(=O)CCOc3ccccc3)CC2)c1 | inconclusive: 0.0046 µM [cytotoxic, full curve, poor fit] | –
CCOc1ccc(CCNC(=O)Cn2c(=O)oc3ccccc32)cc1OCC | active: 18.4 µM | –
CC(=O)NC(=S)Nc1ccc(S(=O)(=O)Nc2nc(C)cc(C)n2)cc1 | – | inactive: -1.84%
CCN1CCN(c2ccc(S(=O)(=O)N3CCCCC3)cc2NC(=O)c2ccc(C)o2)CC1 | – | inactive: -21.7%
CCOc1ccc(NC(=O)CN2CCN(CC(=O)Nc3cccc(F)c3)CC2)cc1 | – | inactive: -12.4%
CCc1cc(OCCN(C)C)ccc1Cl | – | inactive: 2.78%
O=C(COC(=O)c1ccncc1)NCCCc1ccccc1 | inconclusive: 20.6 µM [rising, partial curve, poor fit] | –
CCCCCn1c(N)c(C#N)c2nc3ccccc3nc21 | inconclusive: 23.1 µM [cytotoxic, single point] | –
O=C(NC(=S)Nc1nc2c(ccc3ccccc32)s1)c1cccs1 | inconclusive: 20.6 µM [cytotoxic, single point] | –
Cc1nc2ccc(-c3ccccc3)cc2o1 | inconclusive: 9.2 µM [rising, partial curve, poor fit] | –
CC(C)(C)OC(=O)N1CCC[C@H]1c1nnc(SCc2c(Cl)cccc2Cl)o1 | inconclusive: 9.2 µM [cytotoxic, partial curve] | –
CCc1nc2ccc(C(=O)NCCOc3ccc(OC)cc3)cn2c1N(C)Cc1cccs1 | inconclusive: 14.6 µM [cytotoxic, partial curve] | –
COc1cc(OC)c(NC(=O)c2ccc3c(Cl)c4c(nc3c2)CCCC4)cc1Cl | inconclusive: 29.1 µM [rising, single point] | –
Cc1ccc(-c2noc(CSc3nnnn3-c3ccccc3)n2)cc1 | – | inactive: 2.44%
CCOC(=O)CC(NC(=O)Cc1cccs1)c1ccccc1Cl (stereo not drawn) | – | inactive: -10.2%

Structure (SMILES) | Potency | activity change, negative = cytotoxicity
O=S(=O)(CC(CN1CCCC1)N1CCCC1)c1ccc2ccccc2c1 (stereo not drawn) | inconclusive: 29.1 µM [cytotoxic, single point] | –
O=C1c2ccccc2NC(c2ccc(O)cc2)N1c1ccccc1 (stereo not drawn) | inconclusive: 10.3 µM [rising, partial curve, poor fit] | –
CCOCCCNC(=O)C(NC(=O)c1ccccc1O)c1ccc(Cl)cc1 (stereo not drawn) | inconclusive: 13 µM [cytotoxic, partial curve] | –
CCOC(=O)[C@]12CCC=C1N(CCC1=CCCCC1)C(=O)[C@H](CC(=O)NCCC(C)C)C2 | inconclusive: 13 µM [cytotoxic, partial curve, poor fit] | –
COc1ccc(-c2cn3cccnc3n2)cc1Br | inconclusive: 23.1 µM [cytotoxic, single point] | –
CCOC(=O)C(C)C(C)=O (stereo not drawn) | – | inconclusive: -1.32%
CN1C(=O)c2ccccc2Sc2ccc(NC(=O)COc3ccc(Cl)cc3)cc21 | active: 8.2 µM | –
COCCNc1ccc(-c2nc(-c3cccc(C)c3)no2)cc1[N+](=O)[O-] | inconclusive: 8.2 µM [rising, partial curve] | –
Cc1ccc(S(=O)(=O)Nc2cccc(-c3cn4ccsc4n3)c2)cc1 | active: 23.1 µM | –
Cc1cc(C)nc(N2CCN(c3ncnc4c3cnn4Cc3ccc(Cl)cc3Cl)CC2)n1 | inconclusive: 0.291 µM [cytotoxic, partial curve, poor fit] | –
COc1ccc(/C=C/C(=O)NC(=S)Nc2ccc(S(=O)(=O)Nc3nccnc3OC)cc2)cc1 | inconclusive: 16.4 µM [rising, single point] | –
O=C(CSc1nnc(C2CC2)n1C1CC1)Nc1cccc(Br)c1 | – | inactive: -5.36%
COCCn1c(SCC(=O)Nc2ccc(F)cc2)nc2c(c1=O)SCC2 | – | inactive: -2.91%
O=S(=O)(c1ccc(N2CCCC2c2nc3ccccc3s2)nc1)N1CCOCC1 (stereo not drawn) | active: 8.2 µM | –
Cc1cccc(C)c1Nc1nnc(SCC(=O)NC(=O)c2cccn2C)s1 | – | inactive: 0.197%
O=C1NC(=O)/C(=C/c2cccc3ccccc23)S1 | – | inactive: -26.8%
Cc1cc(OCC(=O)NCc2ccccn2)c2c(C)c(C)c(=O)oc2c1 | inconclusive: 4.61 µM [cytotoxic, full curve] | –
CN(CC(=O)NCc1ccc(Cl)cc1)S(=O)(=O)c1cccs1 | inconclusive: 16.4 µM [cytotoxic, partial curve] | –
Oc1ccc2ccccc2c1CNc1ccc2ccccc2c1 | inconclusive: 18.4 µM [cytotoxic, single point] | –
Cc1ccc2c(c1)C(=O)N1[C@H]3c4cc(Cl)ccc4OC[C@@H]3[C@H](c3ccccc3)[C@]1(C)C(=O)N2 | – | inactive: 0%
Cc1ccc2c(c1C)-c1c(ccc(C)c1C)C(=O)C2=O | active: 0.651 µM | –
CCOc1ccc(NC(=O)C2CCCN2C(=O)Oc2ccccc2)cc1 (stereo not drawn) | inconclusive: 14.6 µM [cytotoxic, partial curve, poor fit] | –
CC(=O)N1[C@H](C)C=C[C@]1(Cc1ccccc1)C(=O)O | inconclusive: 29.1 µM [rising, single point] | –
CC(C)(C)c1cc[n+](/C(C(=S)NC2CC2)=C(/[O-])c2ccc(Cl)s2)cc1 | inconclusive: 10.3 µM [cytotoxic, partial curve] | –
Cc1ccccc1CS(=O)(=O)c1nnc([C@H](Cc2ccccc2)NC(=O)OC(C)(C)C)o1 | inconclusive: 20.6 µM [cytotoxic, partial curve] | –

Structure (SMILES) | Potency | activity change, negative = cytotoxicity
Cc1sc(NC(=O)CSc2nnc3scc(-c4ccccc4)n23)c(C#N)c1C | inconclusive: 0.651 µM [cytotoxic, partial curve, poor fit] | –
CC(C)Cc1ccc(C(C)CC2=CCC(CN(C)C)C2=O)cc1 (stereo not drawn) | inconclusive: 32.6 µM [cytotoxic, single point] | –
Cc1cc(F)ccc1S(=O)(=O)Nc1ccccc1C(=O)NCc1cccnc1 | inconclusive: 16.4 µM [cytotoxic, single point] | –
Cc1ccc(S(=O)(=O)c2nc(-c3ccccc3)oc2SCC(=O)NC2CCCCC2)cc1 | – | inactive: 3.65%
Cc1noc(C)c1COc1ccccc1C(=O)Nc1cccc(S(=O)(=O)N(C)C)c1 | active: 14.6 µM | –
Cc1ccc2c(c1)N(C(=O)c1ccco1)C(C)(C)c1ssc(=S)c1-2 | active: 9.2 µM | –
Cc1ccc(C(=O)NC(=S)Nc2ccccc2C(F)(F)F)cc1C | – | inactive: -3.32%
CCOC(=O)c1[nH]c(C)c(C(=O)N2CCc3ccccc32)c1C | active: 0.326 µM | –
N#Cc1c(/N=C/c2ccccc2)oc(-c2ccccc2)c1-c1ccccc1 | – | inactive: 1.67%
CCCN(CCC)C1Sc2ccc(C(=O)OC)cc2NC1=O (stereo not drawn) | inconclusive: 29.1 µM [cytotoxic, single point] | –
O=C(CSc1ccc2ccccc2c1)NC1CCCc2ccccc21 (stereo not drawn) | active: 14.6 µM | –
O=C(COC(=O)c1n[nH]c(=O)c2ccccc12)Nc1ccccc1F | inconclusive: 11.6 µM [rising, partial curve, poor fit] | –
CCOc1ccccc1NC(=O)CSCC(=O)Nc1ccccc1 | inconclusive: 10.3 µM [cytotoxic, partial curve] | –
Cc1[nH]n(-c2nc(-c3cccc([N+](=O)[O-])c3)cs2)c(=O)c1C | active: 16.4 µM | –
COCc1c(C(=O)N2CCN(Cc3ccc4c(c3)OCO4)CC2)oc2ccccc12 | – | inactive: -28.6%
CC1(C)Cc2c(C#N)c(NCCO)nc(-c3ccco3)c2CO1 | inconclusive: 20.6 µM [cytotoxic, single point] | –
CCOC(=O)C1=C(CS(=O)(=O)c2ccc(C)c(C)c2)NC(=O)NC1c1ccccc1OCC (stereo not drawn) | – | inactive: 5.05%
Cc1cc(C)cc(N(CC(=O)NC2CCCC2)C(=O)CNC(=O)c2cccs2)c1 | inconclusive: 8.2 µM [cytotoxic, partial curve, poor fit] | –
CC(C)c1cc(C(=O)N/N=C/c2ccoc2)c(O)c(C(C)C)c1 | – | inconclusive: -1.83%
Cc1c(C(=O)O)oc2c1C(=O)CC(C)(C)C2 | inconclusive: 14.6 µM [rising, partial curve] | –
CCOC(=O)C1=CCN(S(=O)(=O)c2ccccc2C)C1c1ccc(F)cc1 (stereo not drawn) | – | inactive: -1.32%
CCCCCCSc1cc(-c2nc3ccc(Cl)cn3c2NCCCC)ccc1OC | inconclusive: 9.2 µM [cytotoxic, partial curve] | –
CCCN(CC(=O)Nc1ccccc1C)C(=O)c1ccc2ccccc2n1 | inconclusive: 9.2 µM [cytotoxic, partial curve] | –

Single records, as listed above:
COCCn1c(SCC(=O)Nc2ccc(F)cc2)nc2c(c1=O)SCC2 reads activity change, negative = cytotoxicity: inactive: -2.91%
N#Cc1c(/N=C/c2ccccc2)oc(-c2ccccc2)c1-c1ccccc1 reads activity change, negative = cytotoxicity: inactive: 1.67%
COCCCNc1nc2ccccc2nc1NS(=O)(=O)c1cc(Cl)ccc1Cl reads Potency: inconclusive: 23.1 µM [cytotoxic, partial curve, poor fit]
